Measured values published in PubChem BioAssay AID2685 (National Center for Advancing Translational Sciences (NCATS), 2010).
This is one part of the list. Shown are side measurements of this screen, not its main read-out; they come without a call. Most of these compounds were active or inconclusive in the main read-out, so they are no random draw. The note in brackets gives the kind of curve behind each potency; many fits are weak.

Experiment: qHTS Assay for Lipid Storage Modulators in Drosophila S3 Cells;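 as to cell number change: cells counted by Cell Tracker Red CMTPX staining in the red channel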
Settings: BODIPY lipid droplet fluorescence, 18-24 h; for cell number change: measured here: cell count max response, cells fed with added oleic acid
In short: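 Laser-scanning cytometry quantifies lipid droplet accumulation (500–530 nm total intensity; droplet/cell object ratio) in oleic acid-fed (400 uM added) Drosophila S3 cells treated with a concentration series. 20 uM Triacsin C defined 100% inhibition.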

[1] = measured here: lipid fluorescence (Fed channel) AC50, cells fed with added oleic acid
[2] = measured here: cell number channel AC50, cells fed with added oleic acid

Structure (SMILES)	cell number change [%]	AC50 [1]	AC50 [2]
Cc1ccc(-c2nnn(CC(=O)NCCc3ccc4c(c3)OCO4)n2)cc1	10.7	29.1 µM [rising, single point]	
CCOC(=O)c1c(/C=N/Nc2ccccc2)c2sc(C)cc2n1C	35.3	0.164 µM [rising, full curve]	
O=C(c1ccco1)N1CCN(C(=O)C(Cc2ccccc2)NS(=O)(=O)c2cccs2)CC1 (stereo unspecified)	19.8	13 µM [rising, single point]	
COC(=O)C(C)Sc1nc2c(cnn2-c2ccc(F)cc2)c(=O)[nH]1 (stereo unspecified)	-4.17	0.58 µM [rising, single point]	0.291 µM [rising, partial curve, poor fit]
O=C(O)CCC(=O)CCC(=O)c1ccc(Cl)cc1	-46.8	11.6 µM [falling, partial curve]	29.1 µM [falling, single point]
Cc1ccc(N2CC(C(=O)OCc3ccccc3)CC2=O)cc1 (stereo unspecified)	-25.6	2.31 µM [falling, full curve, poor fit]	
CC(=O)N(C(C)=O)c1nc(-c2ccccc2)cn1/N=C/c1ccccc1		1.46 µM [falling, partial curve]	
COc1ccc(NC(=O)CN2CCN(CC(=O)Nc3ccc(OC)c(OC)c3)CC2)cc1	17	14.6 µM [rising, partial curve]	
CCC(NC(=O)NNC(=O)c1ccncc1)(C(F)(F)F)C(F)(F)F	0.427	1.46 µM [falling, partial curve, poor fit]	
COCCN(C(=O)COC(=O)CCSc1ccc(F)cc1)c1c(N)n(Cc2ccccc2)c(=O)[nH]c1=O	1.39	3.26 µM [rising, single point]	
CCOc1ccc(-c2nnn(CC(=O)Nc3cc(OC)ccc3OC)n2)cc1OCC	-8.94		4.61 µM [falling, single point]
N#CC(C(=O)OCc1ccccc1)c1nc2ccccc2nc1N1CCOCC1 (stereo unspecified)	-0.856	0.517 µM [rising, full curve]	
Cc1c(C(=O)NCc2ccccn2)sc2nc(-c3ccc(F)cc3)cn12	126	2.59 µM [rising, full curve, poor fit]	0.58 µM [rising, full curve]
CCOC(=O)N/N=C\c1ccc(OC(=O)c2ccc3c(c2)OCO3)cc1	7.36	0.651 µM [falling, single point]	
CCCCNC(=O)c1ccc(CS(=O)(=O)c2cccc(C(F)(F)F)c2)o1	7.54		
O=C(Nc1ccc2c(c1)OCO2)C1CC(c2c(F)cccc2Cl)=NO1 (stereo unspecified)		1.16 µM [rising, full curve]	1.46 µM [rising, partial curve]
CC1CCCCN1C(=O)CSc1nc(N)cc(=O)[nH]1 (stereo unspecified)	-12.8	6.51 µM [falling, single point]	
CC(=O)N1CCN(C(=O)/C(C#N)=C/c2ccc3c(c2)OCO3)CC1	-9.01	0.58 µM [falling, single point]	
Cn1nc(C(=O)NCc2cccc(Cl)c2)c2c1-c1ccccc1S(=O)(=O)C2	42.4	20.6 µM [rising, single point]	29.1 µM [rising, single point]
C=CCC1c2cccc(C(=O)O)c2C(=O)N1c1cccc(C)c1 (stereo unspecified)	0.717		

14 structures out of the list, arranged by formula weight, low to high:
Structure (SMILES)	cell number change [%]	AC50 [1]	AC50 [2]
O=C(O)CCC(=O)CCC(=O)c1ccc(Cl)cc1	-46.8	11.6 µM [falling, partial curve]	29.1 µM [falling, single point]
CC1CCCCN1C(=O)CSc1nc(N)cc(=O)[nH]1 (stereo unspecified)	-12.8	6.51 µM [falling, single point]	
C=CCC1c2cccc(C(=O)O)c2C(=O)N1c1cccc(C)c1 (stereo unspecified)	0.717		
Cc1ccc(N2CC(C(=O)OCc3ccccc3)CC2=O)cc1 (stereo unspecified)	-25.6	2.31 µM [falling, full curve, poor fit]	
CC(=O)N1CCN(C(=O)/C(C#N)=C/c2ccc3c(c2)OCO3)CC1	-9.01	0.58 µM [falling, single point]	
CCOC(=O)c1c(/C=N/Nc2ccccc2)c2sc(C)cc2n1C	35.3	0.164 µM [rising, full curve]	
COC(=O)C(C)Sc1nc2c(cnn2-c2ccc(F)cc2)c(=O)[nH]1 (stereo unspecified)	-4.17	0.58 µM [rising, single point]	0.291 µM [rising, partial curve, poor fit]
CCC(NC(=O)NNC(=O)c1ccncc1)(C(F)(F)F)C(F)(F)F	0.427	1.46 µM [falling, partial curve, poor fit]	
O=C(Nc1ccc2c(c1)OCO2)C1CC(c2c(F)cccc2Cl)=NO1 (stereo unspecified)		1.16 µM [rising, full curve]	1.46 µM [rising, partial curve]
Cc1c(C(=O)NCc2ccccn2)sc2nc(-c3ccc(F)cc3)cn12	126	2.59 µM [rising, full curve, poor fit]	0.58 µM [rising, full curve]
N#CC(C(=O)OCc1ccccc1)c1nc2ccccc2nc1N1CCOCC1 (stereo unspecified)	-0.856	0.517 µM [rising, full curve]	
CCCCNC(=O)c1ccc(CS(=O)(=O)c2cccc(C(F)(F)F)c2)o1	7.54		
CCOc1ccc(-c2nnn(CC(=O)Nc3cc(OC)ccc3OC)n2)cc1OCC	-8.94		4.61 µM [falling, single point]
O=C(c1ccco1)N1CCN(C(=O)C(Cc2ccccc2)NS(=O)(=O)c2cccs2)CC1 (stereo unspecified)	19.8	13 µM [rising, single point]	

Additional compounds

Structure (SMILES)	cell number change [%]	AC50 [1]	AC50 [2]
CCCOc1ccc(NC(=O)C2CC(=O)N(C(C)C)C2)cc1 (stereo unspecified)	-8.87		
CCC(OC(=O)CN1C(=O)c2ccccc2C1=O)C(=O)NC1CCCC1 (stereo unspecified)	-8.55		
CC(C)C(=O)Nc1c(-c2cccs2)c(=O)c2ccccc2n1C	36		14.6 µM [rising, single point]
COc1ccc(N(CC(=O)NCCC2=CCCCC2)S(=O)(=O)c2c(C)[nH]c(=O)[nH]c2=O)cc1	-9.03		
Cc1ccccc1N(C)S(=O)(=O)c1nnc(NC(=O)c2ccccc2F)s1	0.33		
CC(=O)Nc1nc(COc2ccc3ccccc3c2)cs1	-34.5	29.1 µM [falling, single point]	23.1 µM [falling, single point]
CC[C@H](C)[C@H](NC(=O)OCc1ccccc1)C(=O)OCC(=O)N(C)CC(=O)Nc1ccccc1Cl	-9.94		
CCCN(CCC)C(=O)Cn1c(=O)n(CCC(=O)NCCc2ccccc2)c(=O)c2ccccc21	139		29.1 µM [rising, single point]
Cc1ccccc1Nc1nc(N)nc(CN2CCN(c3ccccn3)CC2)n1	21.8	1.84 µM [rising, full curve]	
CCc1ccc(NC2=NCC(c3ccccc3)S2)cc1 (stereo unspecified)	-40.3	29.1 µM [falling, single point]	
COc1cccc(C(=O)NC2CCCc3ccccc32)c1 (stereo unspecified)	-9.38	0.731 µM [rising, single point]	
NC(=O)C1CCN(c2ncnc3c2c(-c2ccccc2)cn3-c2ccccc2)CC1	-4.24	0.411 µM [falling, partial curve, poor fit]	
CCOC(=O)c1[nH]c(C)c(/C(O)=C2\C(=O)C(=O)N(CCCN(C)C)C2c2cccnc2)c1C (stereo unspecified)	6.72	0.116 µM [falling, full curve, poor fit]	
Cc1nc(NC(=O)C2CC2)sc1C(=O)Nc1cccc(Cl)c1	7.72	18.4 µM [falling, single point]	
Cc1ccn2c(=O)nc(SCC(=O)NC3CCCCC3)nc2c1			0.58 µM [rising, partial curve, poor fit]
CCC1CCCCN1Cc1ccc(OC)c(OC)c1 (stereo unspecified)	-1.61	29.1 µM [falling, single point]	
CN(C(=O)c1ccc2c(Cl)c3c(nc2c1)CCC3)c1ccccc1	24.6	0.00461 µM [rising, full curve, poor fit]	0.00461 µM [rising, full curve, poor fit]
N#Cc1c(NC(=O)c2ccccc2Cl)n(Cc2ccccc2)c2nc3ccccc3nc12	-22.6	29.1 µM [rising, single point]	
COc1ccc(OC(=O)c2cccc([N+](=O)[O-])c2)c(C(=O)/C=C/c2cccs2)c1	-87.2	29.1 µM [falling, single point]	29.1 µM [falling, single point]
Nc1nonc1C(=O)NCCNC(=O)c1ccc(Cl)c(Cl)c1	10.8		

Structure (SMILES)	cell number change [%]	AC50 [1]	AC50 [2]
CC(=O)Nc1cccc(NC(=O)CSc2n[nH]c(-c3ccccc3)n2)c1	-6.48	29.1 µM [rising, single point]	
CCSc1ccccc1C(=O)Nc1ccc([N+](=O)[O-])cc1OC	-20.6	0.00517 µM [falling, full curve, poor fit]	
CC(C)(C)OC(=O)N1CCN(c2ccc(NC(=O)Cn3nnc(-c4ccccc4)n3)cc2)CC1	-53.6	23.1 µM [falling, partial curve]	29.1 µM [falling, single point]
O=C(CN1C(=O)C(=O)N(C2CCCC2)C1=O)Nc1ccc(F)cc1F	-2.81		
CC1CCC(NC(=O)COC(=O)C2CC3CCCC(C2)C3=O)CC1 (stereo unspecified)	75		5.8 µM [rising, full curve]
CCN1C(N(C)C)=NC[C@@H]1Cc1ccccc1	-11.6	6.51 µM [falling, single point]	5.8 µM [falling, single point]
CCOc1ccc(CNC(=O)CCC(=O)n2nc(C)c3ccccc32)cc1	-20.2		
Cc1cc(Cl)ccc1Oc1ccccc1C(=O)CC#N	16.1		
COc1ccc(S(=O)(=O)Nc2nc3n(n2)C(c2ccc(Cl)cc2)CC(=O)N3)cc1 (stereo unspecified)	16.5	20.6 µM [rising, single point]	
Cc1ccc(NC(=O)CSc2nnc(-c3ccccc3Br)o2)cc1C	-3.29		
COc1cc(NC(=O)CCN2CCN(Cc3ccccc3)CC2)cc(OC)c1	-10.9	16.4 µM [rising, partial curve]	
CCOc1ccc(S(=O)(=O)N(CC(=O)O)c2ccccc2)cc1	-8.99	5.17 µM [rising, single point]	
O=C(CSc1nnc(-c2ccncc2)n1-c1ccccc1)N1CCN(c2ccc(Cl)cc2)CC1	3.49	16.4 µM [rising, single point]	
CC/C(=C(\c1ccc(O)cc1)c1ccc(OCCN(C)C)cc1)c1ccccc1	-48.5	23.1 µM [falling, single point]	20.6 µM [falling, single point]
COc1cc(CNCCN2CCOCC2)ccc1OCC(=O)NC(C)(C)C	12.5		5.8 µM [falling, partial curve]
C=CCC(NCc1ccco1)c1ccc(OC)c(OC)c1 (stereo unspecified)		0.82 µM [falling, full curve]	
Cc1ccc(NC(=O)c2ccc3c(c2)OCCO3)cc1C		0.58 µM [falling, single point]	0.291 µM [rising, full curve]
COc1ccc(-c2nn3c(-c4ccccn4)nnc3s2)cc1OC	-36.2	18.4 µM [falling, partial curve, poor fit]	14.6 µM [falling, partial curve, poor fit]
Cc1cc2nc(-c3ccc(SCC(=O)N4CCOCC4)nc3)[nH]c2cc1C		0.13 µM [falling, full curve, poor fit]	2.91 µM [falling, partial curve, poor fit]
CCCCCOc1ccc(N2C(=O)CC(N(O)c3ccccc3)C2=O)cc1 (stereo unspecified)	-15	0.00411 µM [rising, full curve, poor fit]	
